Reference: the supplement of paper PMC9233669
This sample is rich in variants without activity.

Legend:
[1] = tested on: biotinyl-Leu-oxazolone; assay: self-aminoacylation, catalytic enhancement (BLO) (fold over background); higher = more active; k-Seq, kA / k0A0; sequences stand for … in GGGAAUGGAUCCACAUCUACGAAUUC…UUCACUGCAGACUUGACGAAGCUG
In short: (§1)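 Mutagenized RNA pools with a 21-nt variable region (0.43 μM) reacted with each biotinyl-aminoacyl-oxazolone at 2–1250 μM. Reactions ran in 50 μL HEPES/NaCl/KCl/MgCl2/CaCl2 buffer with 5% acetonitrile, pH 6.9–7.0, for 90 minutes at room temperature. Streptavidin-captured RNA was quantified by triplicate qPCR and Illumina sequencing, and per-sequence fraction reacted was fit to a pseudo-first-order model with 1000 bootstraps. Catalytic enhancement is median kA divided by the uncatalyzed rate, the low-activity peak of a bimodal Gaussian fit.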

[2] = tested on: biotinyl-Val-oxazolone; assay: self-aminoacylation, catalytic enhancement (BVO) (fold over background); higher = more active; k-Seq, kA / k0A0; sequences stand for … in GGGAAUGGAUCCACAUCUACGAAUUC…UUCACUGCAGACUUGACGAAGCUG
In short: as §1

[3] = tested on: biotinyl-Ile-oxazolone; assay: self-aminoacylation, catalytic enhancement (BIO) (fold over background); higher = more active; k-Seq, kA / k0A0; sequences stand for … in GGGAAUGGAUCCACAUCUACGAAUUC…UUCACUGCAGACUUGACGAAGCUG
In short: as §1

[4] = tested on: biotinyl-Met-oxazolone; assay: self-aminoacylation, catalytic enhancement (BMO) (fold over background); higher = more active; k-Seq, kA / k0A0; sequences stand for … in GGGAAUGGAUCCACAUCUACGAAUUC…UUCACUGCAGACUUGACGAAGCUG
In short: as §1

Sequence | self-aminoacylation [1] | self-aminoacylation [2] | self-aminoacylation [3] | self-aminoacylation [4]
CUACUUCAAACAAUCAGACUG [Fam1A.1 aminoacylation ribozyme variant] | 0.631 | 0.656 | 0.584 | 0.54
CUUCUUCAAUCAAUCGGUCUG [Fam1A.1 aminoacylation ribozyme variant] | 1.21 | 0.956 | 0.975 | 0.986
AUCCACCUAGGUCAUUGGGUG [Fam2.2 aminoacylation ribozyme variant] | 3.86 | 3.24 | 3.51 | 3.76
CUACUUCAGACAAUCGUUCUG [Fam1A.1 aminoacylation ribozyme variant] | 0.512 | 0.659 | 0.59 | 0.477
CUACUUCAAUCAAUCGGUCCG [Fam1A.1 aminoacylation ribozyme variant] | 1.2 | 0.876 | 0.917 | 0.762
CUACUUCAACCAAUCGGUUUG [Fam1A.1 aminoacylation ribozyme variant] | 1.06 | 1.07 | 0.834 | 0.867
AUCACCCUGGUCACCGAGUGA [Fam2.1 aminoacylation ribozyme variant] | 15.4 | 5.92 | 6.34 | 17.5
CCUCACUUCAAUCAAUCGGUC [Fam1B.1 aminoacylation ribozyme variant] | 1.49 | 0.969 | 1.13 | 0.943
ACGCUUGCUAAUAGUCGCAAG [Fam3.1 aminoacylation ribozyme variant] | 1.83 | 1.68 | – | –
CCCCACUUCAAGCAAUCCGUC [Fam1B.1 aminoacylation ribozyme variant] | 1.02 | 1.6 | 1.62 | 1
CUGCUUCAAACAAUCGGUCAG [Fam1A.1 aminoacylation ribozyme variant] | 1.47 | 1.24 | 0.975 | 1.08
CCACACCUCAAGCAUUCGGUC [Fam1B.1 aminoacylation ribozyme variant] | 1.83 | – | – | 1.98
AUUAUCCUGGUCAUCGAGAGA [Fam2.1 aminoacylation ribozyme variant] | 0.847 | 0.989 | 1.08 | 0.869
AAAUUUGCUAAGAGUCGCAAG [Fam3.1 aminoacylation ribozyme variant] | 1.9 | 1.45 | – | 1.86
AUUACCAUGGUCAUCUAGUGA [Fam2.1 aminoacylation ribozyme variant] | 11.1 | 5.38 | 5.41 | 11.1
AAGAUUGCUAAUAGUCGUAAG [Fam3.1 aminoacylation ribozyme variant] | 0.993 | 1.03 | 1.11 | 1.15
CUACUUCAACCAAGCGGUCUG [Fam1A.1 aminoacylation ribozyme variant] | 0.942 | 0.954 | 1.02 | 0.907
AAGUCUGCUAACAGUCGCAAG [Fam3.1 aminoacylation ribozyme variant] | 1.47 | 1.33 | 1.27 | –
UCACUCUUCAAGCAAUCGGUC [Fam1B.1 aminoacylation ribozyme variant] | 1.36 | 1.19 | 0.912 | 0.916
CCACACUUCACGCUAUCGGUC [Fam1B.1 aminoacylation ribozyme variant] | 0.971 | 1.17 | 1.13 | 1.03
CUCCUUCAAACAAUCGGUCUU [Fam1A.1 aminoacylation ribozyme variant] | 1.62 | 1.25 | 1.13 | 1.26
CUAGUUCAAACAAUCGGUCGG [Fam1A.1 aminoacylation ribozyme variant] | 1.06 | 0.952 | 1.02 | 1.2

Sequence | self-aminoacylation [1] | self-aminoacylation [2] | self-aminoacylation [3] | self-aminoacylation [4]
CUAGUUCAAACAAUCGCUCUG [Fam1A.1 aminoacylation ribozyme variant] | 0.798 | 0.934 | 0.832 | 0.827
CCACACUUCAAUCAAUCAGUC [Fam1B.1 aminoacylation ribozyme variant] | 0.827 | 0.814 | 0.818 | 0.697
AUACUUCAAACAAUCGGUAUG [Fam1A.1 aminoacylation ribozyme variant] | 0.732 | 0.744 | 0.925 | 0.732
CUACACUUCAAGGAAUCGGUC [Fam1B.1 aminoacylation ribozyme variant] | 0.984 | 0.887 | 0.91 | 0.883
AAGUUUGCUAUUAGACGCAAG [Fam3.1 aminoacylation ribozyme variant] | 0.691 | 0.894 | 0.577 | 0.712
CCACAGUUCAAACAAUCGGUC [Fam1B.1 aminoacylation ribozyme variant] | 1.83 | 1.53 | 1.56 | 1.36
AUUACCCUGCUCAUCGAGUGU [Fam2.1 aminoacylation ribozyme variant] | 0.916 | 0.78 | 0.991 | 1
AAGUUUUCUAAGAGUCGCAAG [Fam3.1 aminoacylation ribozyme variant] | 1.62 | 1.62 | 1.65 | 1.32
CCACACUCCAACCAAUCGGUC [Fam1B.1 aminoacylation ribozyme variant] | 0.85 | 1.07 | 1.2 | 1.04
AUUCACCCAGGUCAUCUGGUG [Fam2.2 aminoacylation ribozyme variant] | 4.84 | 2.25 | 2.35 | 3.99
AAGUUCGCGAAUAGUCGCAAG [Fam3.1 aminoacylation ribozyme variant] | 1.55 | 1.35 | 1.77 | –
AUUACCCUGAUCGUCGAGUGA [Fam2.1 aminoacylation ribozyme variant] | – | 0.862 | 0.89 | 0.75
CCACCCUUCAAGCAAUCGGUA [Fam1B.1 aminoacylation ribozyme variant] | – | 1.6 | 1.4 | 1.38
AUUCACGUAGGUCAUCGAGUG [Fam2.2 aminoacylation ribozyme variant] | – | 1.89 | 1.88 | 2.92
UAACUUCAAACAAUCGGUCUG [Fam1A.1 aminoacylation ribozyme variant] | – | 1.54 | 1.38 | 1.52
CCUCGCUUCAAGCAAUCGGUC [Fam1B.1 aminoacylation ribozyme variant] | – | 1.33 | 1.14 | 1.35
CGACUUCAAACAAUCGGUUUG [Fam1A.1 aminoacylation ribozyme variant] | – | 1.65 | 1.61 | 1.44
AAGCUUGCUAAUAGUCGCAAA [Fam3.1 aminoacylation ribozyme variant] | 1.65 | 1.76 | 1.84 | –
AUUACCCGAGUCAUCGAGUGA [Fam2.1 aminoacylation ribozyme variant] | – | 4.68 | 4.27 | 8.55
AAGCUUGCUGAUAGUCGCAAG [Fam3.1 aminoacylation ribozyme variant] | 1.73 | – | – | –
CCACUUCAAACAAUCGGUCGG [Fam1A.1 aminoacylation ribozyme variant] | – | 1.55 | 1.69 | 1.38
